Assays:
Assay in all cases: minimum inhibitory concentration
rifampicin = compound: CO[C@H]1/C=C/O[C@@]2(C)Oc3c(C)c(O)c4c(O)c(c(/C=N/N5CCN(C)CC5)c(O)c4c3C2=O)NC(=O)/C(C)=C\C=C\[C@H](C)[C@H](O)[C@@H](C)[C@@H](O)[C@@H](C)[C@H](OC(C)=O)[C@@H]1C [rifampicin]
metronidazole = compound: Cc1ncc([N+](=O)[O-])n1CCO [metronidazole]
linezolid = compound: CC(=O)NC[C@H]1CN(c2ccc(N3CCOCC3)c(F)c2)C(=O)O1 [linezolid]
tigecycline = compound: CN(C)c1cc(NC(=O)CNC(C)(C)C)c(O)c2c1C[C@H]1C[C@H]3[C@H](N(C)C)C(O)=C(C(N)=O)C(=O)[C@@]3(O)C(O)=C1C2=O [tigecycline]
meropenem = compound: C[C@@H](O)[C@H]1C(=O)N2C(C(=O)O)=C(S[C@@H]3CN[C@H](C(=O)N(C)C)C3)[C@H](C)[C@H]12 [meropenem]
vancomycin = compound: CN[C@H](CC(C)C)C(=O)N[C@H]1C(=O)N[C@@H](CC(N)=O)C(=O)N[C@H]2C(=O)N[C@H]3C(=O)N[C@H](C(=O)N[C@H](C(=O)O)c4cc(O)cc(O)c4-c4cc3ccc4O)[C@H](O)c3ccc(c(Cl)c3)Oc3cc2cc(c3O[C@@H]2O[C@H](CO)[C@@H](O)[C@H](O)[C@H]2O[C@H]2C[C@](C)(N)[C@H](O)[C@H](C)O2)Oc2ccc(cc2Cl)[C@H]1O [vancomycin]
clindamycin = compound: CCC[C@@H]1C[C@@H](C(=O)N[C@@H]([C@H]2O[C@H](SC)[C@H](O)[C@@H](O)[C@H]2O)[C@H](C)Cl)N(C)C1 [clindamycin]
imipenem = compound: C[C@@H](O)[C@H]1C(=O)N2C(C(=O)O)=C(SCCNC=N)C[C@H]12 [imipenem]
fidaxomicin = compound: CCc1c(Cl)c(O)c(Cl)c(O)c1C(=O)O[C@H]1[C@H](O)[C@H](OC)[C@H](OC/C2=C\C=C\C[C@H](O)/C(C)=C/[C@H](CC)[C@@H](O[C@@H]3OC(C)(C)[C@@H](OC(=O)C(C)C)[C@H](O)[C@@H]3O)/C(C)=C/C(C)=C/C[C@@H]([C@@H](C)O)OC2=O)O[C@@H]1C [fidaxomicin]

Row | Test System | minimum inhibitory concentration (rifampicin) | minimum inhibitory concentration (metronidazole) | minimum inhibitory concentration (linezolid) | minimum inhibitory concentration (tigecycline) | minimum inhibitory concentration (meropenem) | minimum inhibitory concentration (vancomycin) | minimum inhibitory concentration (clindamycin) | minimum inhibitory concentration (imipenem) | minimum inhibitory concentration (fidaxomicin)
1 | Clostridioides difficile PCR ribotype 126 isolate #378 (European region: South, country: Spain, isolate source: Animal, ribotype: 126) | < 0.001 µg/mL | 0.25 µg/mL | 2 µg/mL | < 0.03 µg/mL | 2 µg/mL | 1 µg/mL | 8 µg/mL | 4 µg/mL | 0.06 µg/mL
2 | Clostridioides difficile PCR ribotype 126 isolate #379 (European region: West, country: France, isolate source: Animal, ribotype: 126) | < 0.001 µg/mL | 0.25 µg/mL | 2 µg/mL | < 0.03 µg/mL | 2 µg/mL | 0.5 µg/mL | 16 µg/mL | 2 µg/mL | 0.03 µg/mL
3 | Clostridioides difficile PCR ribotype 126 isolate #380 (European region: West, country: France, isolate source: Animal, ribotype: 126) | < 0.001 µg/mL | < 0.125 µg/mL | 16 µg/mL | < 0.03 µg/mL | 4 µg/mL | 1 µg/mL | 64 µg/mL | 2 µg/mL | 0.03 µg/mL
4 | Clostridioides difficile PCR ribotype 126 isolate #381 (European region: West, country: France, isolate source: Animal, ribotype: 126) | < 0.001 µg/mL | < 0.125 µg/mL | 2 µg/mL | < 0.03 µg/mL | 4 µg/mL | 1 µg/mL | 2 µg/mL | 2 µg/mL | 0.015 µg/mL
5 | Clostridioides difficile PCR ribotype 126 isolate #382 (European region: West, country: France, isolate source: Animal, ribotype: 126) | < 0.001 µg/mL | 0.25 µg/mL | 2 µg/mL | < 0.03 µg/mL | 2 µg/mL | 1 µg/mL | 2 µg/mL | 2 µg/mL | 0.03 µg/mL
6 | Clostridioides difficile PCR ribotype 126 isolate #383 (European region: West, country: France, isolate source: Animal, ribotype: 126) | < 0.001 µg/mL | < 0.125 µg/mL | 2 µg/mL | < 0.03 µg/mL | 4 µg/mL | 1 µg/mL | 8 µg/mL | 2 µg/mL | 0.03 µg/mL
7 | Clostridioides difficile PCR ribotype 126 isolate #384 (European region: West, country: France, isolate source: Animal, ribotype: 126) | < 0.001 µg/mL | < 0.125 µg/mL | 2 µg/mL | < 0.03 µg/mL | 2 µg/mL | 1 µg/mL | 8 µg/mL | 2 µg/mL | 0.03 µg/mL
8 | Clostridioides difficile PCR ribotype 126 isolate #385 (European region: West, country: France, isolate source: Animal, ribotype: 126) | < 0.001 µg/mL | < 0.125 µg/mL | 2 µg/mL | < 0.03 µg/mL | 2 µg/mL | 1 µg/mL | 2 µg/mL | 2 µg/mL | 0.03 µg/mL
9 | Clostridioides difficile PCR ribotype 126 isolate #386 (European region: West, country: France, isolate source: Animal, ribotype: 126) | < 0.001 µg/mL | < 0.125 µg/mL | 2 µg/mL | 0.06 µg/mL | 2 µg/mL | 1 µg/mL | 4 µg/mL | 2 µg/mL | 0.004 µg/mL
10 | Clostridioides difficile PCR ribotype 126 isolate #387 (European region: West, country: France, isolate source: Animal, ribotype: 126) | < 0.001 µg/mL | < 0.125 µg/mL | 2 µg/mL | < 0.03 µg/mL | 4 µg/mL | 1 µg/mL | 4 µg/mL | 2 µg/mL | 0.015 µg/mL
11 | Clostridioides difficile PCR ribotype 126 isolate #388 (European region: West, country: France, isolate source: Animal, ribotype: 126) | < 0.001 µg/mL | < 0.125 µg/mL | 2 µg/mL | < 0.03 µg/mL | 2 µg/mL | 1 µg/mL | 2 µg/mL | 2 µg/mL | 0.03 µg/mL
12 | Clostridioides difficile PCR ribotype 126 isolate #389 (European region: West, country: France, isolate source: Animal, ribotype: 126) | < 0.001 µg/mL | < 0.125 µg/mL | 2 µg/mL | < 0.03 µg/mL | 2 µg/mL | 1 µg/mL | 2 µg/mL | 2 µg/mL | 0.03 µg/mL
13 | Clostridioides difficile PCR ribotype 126 isolate #390 (European region: West, country: France, isolate source: Animal, ribotype: 126) | < 0.001 µg/mL | 0.25 µg/mL | 2 µg/mL | 0.06 µg/mL | 2 µg/mL | 1 µg/mL | 2 µg/mL | 2 µg/mL | 0.03 µg/mL
14 | Clostridioides difficile PCR ribotype 126 isolate #391 (European region: West, country: France, isolate source: Animal, ribotype: 126) | < 0.001 µg/mL | 0.25 µg/mL | 2 µg/mL | < 0.03 µg/mL | 2 µg/mL | 1 µg/mL | 8 µg/mL | 1 µg/mL | 0.015 µg/mL
15 | Clostridioides difficile PCR ribotype 126 isolate #392 (European region: West, country: France, isolate source: Animal, ribotype: 126) | < 0.001 µg/mL | 0.25 µg/mL | 2 µg/mL | < 0.03 µg/mL | 2 µg/mL | 1 µg/mL | 64 µg/mL | 2 µg/mL | 0.03 µg/mL
16 | Clostridioides difficile PCR ribotype 126 isolate #393 (European region: West, country: France, isolate source: Animal, ribotype: 126) | < 0.001 µg/mL | 0.25 µg/mL | 2 µg/mL | < 0.03 µg/mL | 4 µg/mL | 1 µg/mL | 8 µg/mL | 2 µg/mL | 0.03 µg/mL
17 | Clostridioides difficile PCR ribotype 126 isolate #394 (European region: West, country: France, isolate source: Animal, ribotype: 126) | < 0.001 µg/mL | < 0.125 µg/mL | 2 µg/mL | < 0.03 µg/mL | 2 µg/mL | 1 µg/mL | 4 µg/mL | 2 µg/mL | 0.03 µg/mL
18 | Clostridioides difficile PCR ribotype 126 isolate #395 (European region: West, country: Netherlands, isolate source: Animal, ribotype: 126) | < 0.001 µg/mL | < 0.125 µg/mL | 2 µg/mL | 0.06 µg/mL | 4 µg/mL | 0.5 µg/mL | 2 µg/mL | 2 µg/mL | 0.03 µg/mL
19 | Clostridioides difficile PCR ribotype 131 isolate #216 (European region: West, country: Netherlands, isolate source: Human, ribotype: 131) | < 0.001 µg/mL | 0.25 µg/mL | 2 µg/mL | 0.06 µg/mL | 4 µg/mL | 1 µg/mL | 16 µg/mL | 1 µg/mL | 0.06 µg/mL
20 | Clostridioides difficile PCR ribotype 132 isolate #217 (European region: West, country: France, isolate source: Human, ribotype: 132) | < 0.001 µg/mL | 0.25 µg/mL | 1 µg/mL | < 0.03 µg/mL | 2 µg/mL | 0.5 µg/mL | 32 µg/mL | 2 µg/mL | 0.03 µg/mL
21 | Clostridioides difficile PCR ribotype 137 isolate #218 (European region: North, country: UK, isolate source: Human, ribotype: 137) | < 0.001 µg/mL | < 0.125 µg/mL | 2 µg/mL | 0.125 µg/mL | 2 µg/mL | 1 µg/mL | 16 µg/mL | 2 µg/mL | 0.03 µg/mL
22 | Clostridioides difficile PCR ribotype 140 isolate #219 (European region: North, country: UK, isolate source: Human, ribotype: 140) | < 0.001 µg/mL | 0.25 µg/mL | 2 µg/mL | < 0.03 µg/mL | 2 µg/mL | 0.5 µg/mL | 1 µg/mL | 4 µg/mL | 0.06 µg/mL
23 | Clostridioides difficile PCR ribotype 145 isolate #396 (European region: West, country: Netherlands, isolate source: Animal, ribotype: 145) | < 0.001 µg/mL | < 0.125 µg/mL | 2 µg/mL | < 0.03 µg/mL | 4 µg/mL | 0.5 µg/mL | 1 µg/mL | 1 µg/mL | 0.03 µg/mL
24 | Clostridioides difficile PCR ribotype 153 isolate #220 (European region: North, country: UK, isolate source: Human, ribotype: 153) | < 0.001 µg/mL | < 0.125 µg/mL | 2 µg/mL | 0.06 µg/mL | 2 µg/mL | 1 µg/mL | 8 µg/mL | 2 µg/mL | 0.06 µg/mL
25 | Clostridioides difficile PCR ribotype 154 isolate #221 (European region: East, country: Romania, isolate source: Human, ribotype: 154) | < 0.001 µg/mL | 0.25 µg/mL | 2 µg/mL | < 0.03 µg/mL | 4 µg/mL | 0.5 µg/mL | 8 µg/mL | 4 µg/mL | 0.008 µg/mL
26 | Clostridioides difficile PCR ribotype 154 isolate #222 (European region: South, country: Spain, isolate source: Human, ribotype: 154) | < 0.001 µg/mL | 0.25 µg/mL | 2 µg/mL | < 0.03 µg/mL | 4 µg/mL | 1 µg/mL | 16 µg/mL | 4 µg/mL | 0.06 µg/mL
